# Experimental data taken from PMC11375011, “Inducible auto-phosphorylation regulates a widespread family of nucleotidyltransferase toxins” (Nature Communications, 2024).
# Chains of the proteins cited; added tags and fusions are not shown. Lines headed by an entry give the natural chain unless they say otherwise; changes in a name come on top.
# UniProt L7N686: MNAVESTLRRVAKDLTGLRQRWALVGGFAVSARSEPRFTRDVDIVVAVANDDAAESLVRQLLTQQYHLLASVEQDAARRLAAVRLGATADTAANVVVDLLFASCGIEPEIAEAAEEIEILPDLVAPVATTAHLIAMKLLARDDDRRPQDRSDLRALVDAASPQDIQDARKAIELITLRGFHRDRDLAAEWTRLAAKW
# These are yes or no findings as the source states them, for the method shown. Binding calls can cover weak binding; strength is not graded here.
# B1: MenA1 co-expressed with MenT1 (protein, UniProt I6X8G2 2-68)
# chain: AVSVAAQKLRLALDMYEVGEQMQRMRLGRERPNADVVEIEAAIDAWRMTRPGAEEGDSAGPTSTRFT
# B2: MenA1 wild type (protein, UniProt I6X8G2 2-68)
# chain: B1 chain
# Columns and labels:
# [1] = target: MenT1 co-expressed with MenA1 (Mycobacterium tuberculosis) (UniProt L7N686); experiment: SEC
# [2] = target: MenT1-p (MenT1 phosphorylated at T39) (Mycobacterium tuberculosis) (UniProt L7N686); experiment: SEC; both purified
# [3] = target: MenT1 wild type (Mycobacterium tuberculosis) (UniProt L7N686); experiment: SEC; both purified
Binder,binding [1],binding [2],binding [3]
B1,binds,,
B2,,binds,binds
